{"source": "patent US7033829B2", "about": "“Method to inhibit cell growth using oligonucleotides” (Trustees of Boston University, priority 2000, dated 2006)", "test_system": "Cloudman S91 mouse melanoma cells", "experiment": "Melanin content of Cloudman S91 melanoma cells", "type": "cell-based", "details": "5 days; FIG. 15", "protocol": "The induction of melanogenesis in Cloudman S91 mouse melanoma cells by a five-nucleotide oligomer CATAC (SEQ ID NO: 6) and a nine-nucleotide oligomer, GAGTATGAG (SEQ ID NO: 1) was examined. Duplicates of Cloudman S91 murine melanoma cells were incubated with either 100 μM oligo or an equal volume of diluent (H2O) for 5 days. The cells were then collected, counted, and an equal number of cells were pelleted for melanin analysis. […] Variations of this oligonucleotide were evaluated: a scrambled 9-mer (TAGGAGGAT; SEQ ID NO: 2) and two truncated versions, a 7-mer (AGTATGA; SEQ ID NO: 3) and second 5-mer (GTATG; SEQ ID NO: 4). […] The truncated versions (SEQ ID NOs: 3 and 4) were also active, inducing 640% and 670% increases, respectively. […]\npTpT, shown previously to stimulate pigmentation in these cells, was used as a reference treatment, and diluent alone was used as a negative control. After five days of treatment with the oligonucleotides, the cells were collected, counted, and an equal number of cells were pelleted for melanin analysis. […]\nCultures of S91 mouse melanoma cells (100,000 cells/38 cm^2) were treated with 100 μM pTpT or phosphorothioate pTpT (pTspT) (FIG. 22) or 40 μM 11mer-1 or the phosphorothioate 11mer-1 (11mer-1-S) (FIG. 23) for 6 days and were then collected, counted and assayed for melanin content. […]", "note": "Some entries share one result that the patent states for a list of compounds.", "data": [{"sequence": "GTATG (DNA, phosphodiester; further chemistry not fully specified) [SEQ ID NO: 4]", "values": [{"measurement": "increase in melanin", "value": "7–8 fold"}]}]}
